Results as given in the supplement of paper PMC10849652.
This is one part of the list.

By UniProt entry, the sequences of proteins in these tests, tags left out. Where a name states a change or a piece, a line headed by the entry shows the natural chain unless it says otherwise.
UniProt O94829: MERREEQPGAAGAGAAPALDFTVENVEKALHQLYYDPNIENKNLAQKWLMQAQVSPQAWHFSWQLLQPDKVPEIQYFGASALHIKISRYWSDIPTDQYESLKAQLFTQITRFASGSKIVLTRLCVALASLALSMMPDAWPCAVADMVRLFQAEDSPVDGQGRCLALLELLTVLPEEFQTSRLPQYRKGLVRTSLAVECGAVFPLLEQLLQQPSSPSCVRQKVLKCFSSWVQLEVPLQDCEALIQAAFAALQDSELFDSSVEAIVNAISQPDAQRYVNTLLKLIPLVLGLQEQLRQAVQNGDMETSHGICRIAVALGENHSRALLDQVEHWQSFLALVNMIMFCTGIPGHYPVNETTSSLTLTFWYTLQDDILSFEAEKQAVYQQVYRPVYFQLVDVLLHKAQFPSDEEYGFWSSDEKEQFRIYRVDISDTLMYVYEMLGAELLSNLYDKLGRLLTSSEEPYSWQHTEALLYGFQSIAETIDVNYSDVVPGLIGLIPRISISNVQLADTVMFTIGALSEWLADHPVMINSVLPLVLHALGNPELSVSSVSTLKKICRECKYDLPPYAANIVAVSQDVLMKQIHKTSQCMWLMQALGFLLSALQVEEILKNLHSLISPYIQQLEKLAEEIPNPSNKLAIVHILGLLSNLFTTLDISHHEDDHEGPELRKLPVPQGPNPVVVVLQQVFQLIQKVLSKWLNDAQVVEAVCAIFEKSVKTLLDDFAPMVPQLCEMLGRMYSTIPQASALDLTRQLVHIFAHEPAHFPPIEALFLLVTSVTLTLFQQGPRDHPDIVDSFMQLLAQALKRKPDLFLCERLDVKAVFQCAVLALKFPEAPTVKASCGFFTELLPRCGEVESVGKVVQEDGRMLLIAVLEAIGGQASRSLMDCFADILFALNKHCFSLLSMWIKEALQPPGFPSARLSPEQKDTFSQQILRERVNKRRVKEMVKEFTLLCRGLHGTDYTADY
UniProt Q16891: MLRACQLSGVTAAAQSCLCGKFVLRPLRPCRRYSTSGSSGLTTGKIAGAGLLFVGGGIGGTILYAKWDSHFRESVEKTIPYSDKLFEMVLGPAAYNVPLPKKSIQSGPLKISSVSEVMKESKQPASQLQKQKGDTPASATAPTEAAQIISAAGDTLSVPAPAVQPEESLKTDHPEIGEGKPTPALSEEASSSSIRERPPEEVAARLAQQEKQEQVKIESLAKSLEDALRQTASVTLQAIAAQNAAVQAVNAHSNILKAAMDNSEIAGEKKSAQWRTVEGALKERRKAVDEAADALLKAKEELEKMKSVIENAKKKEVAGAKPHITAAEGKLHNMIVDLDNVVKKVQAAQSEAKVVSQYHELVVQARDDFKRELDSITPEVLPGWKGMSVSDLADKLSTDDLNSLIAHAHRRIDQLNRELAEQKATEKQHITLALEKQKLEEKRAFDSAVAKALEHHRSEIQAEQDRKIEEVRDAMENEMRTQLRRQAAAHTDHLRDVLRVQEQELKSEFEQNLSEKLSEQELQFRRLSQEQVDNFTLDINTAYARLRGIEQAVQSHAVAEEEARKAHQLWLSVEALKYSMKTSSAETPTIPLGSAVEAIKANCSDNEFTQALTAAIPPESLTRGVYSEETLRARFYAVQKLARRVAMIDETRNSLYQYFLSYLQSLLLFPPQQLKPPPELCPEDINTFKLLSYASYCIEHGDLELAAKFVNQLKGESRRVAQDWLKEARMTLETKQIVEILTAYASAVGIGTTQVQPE
UniProt P19823: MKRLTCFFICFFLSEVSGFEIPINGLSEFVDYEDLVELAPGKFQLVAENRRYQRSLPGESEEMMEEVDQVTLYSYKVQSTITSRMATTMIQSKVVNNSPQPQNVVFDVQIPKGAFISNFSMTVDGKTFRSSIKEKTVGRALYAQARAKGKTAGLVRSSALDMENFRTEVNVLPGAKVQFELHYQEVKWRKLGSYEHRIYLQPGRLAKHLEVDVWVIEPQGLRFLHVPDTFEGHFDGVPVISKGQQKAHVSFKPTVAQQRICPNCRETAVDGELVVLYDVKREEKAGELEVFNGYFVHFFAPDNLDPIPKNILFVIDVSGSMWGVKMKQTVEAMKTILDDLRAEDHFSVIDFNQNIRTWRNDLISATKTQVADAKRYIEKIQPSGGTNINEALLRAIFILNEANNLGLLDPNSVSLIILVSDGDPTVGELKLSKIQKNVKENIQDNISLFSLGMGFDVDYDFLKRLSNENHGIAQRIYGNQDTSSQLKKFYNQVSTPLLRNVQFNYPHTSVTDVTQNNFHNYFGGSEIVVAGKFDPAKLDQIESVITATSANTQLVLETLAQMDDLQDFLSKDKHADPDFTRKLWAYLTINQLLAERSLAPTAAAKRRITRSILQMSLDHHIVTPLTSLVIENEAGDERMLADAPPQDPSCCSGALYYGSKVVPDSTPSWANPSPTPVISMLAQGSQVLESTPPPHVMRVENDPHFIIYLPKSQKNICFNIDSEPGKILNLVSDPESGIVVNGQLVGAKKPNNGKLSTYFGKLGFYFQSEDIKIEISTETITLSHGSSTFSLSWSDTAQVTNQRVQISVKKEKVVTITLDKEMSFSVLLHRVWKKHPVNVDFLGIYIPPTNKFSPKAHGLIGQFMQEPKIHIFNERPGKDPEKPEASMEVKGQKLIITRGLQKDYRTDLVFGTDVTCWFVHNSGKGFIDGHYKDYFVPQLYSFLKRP
UniProt Q86U28: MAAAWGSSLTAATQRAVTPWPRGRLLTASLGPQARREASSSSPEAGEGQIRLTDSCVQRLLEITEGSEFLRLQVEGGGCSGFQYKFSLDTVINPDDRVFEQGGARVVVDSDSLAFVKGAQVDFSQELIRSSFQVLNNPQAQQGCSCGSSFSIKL
UniProt P51553: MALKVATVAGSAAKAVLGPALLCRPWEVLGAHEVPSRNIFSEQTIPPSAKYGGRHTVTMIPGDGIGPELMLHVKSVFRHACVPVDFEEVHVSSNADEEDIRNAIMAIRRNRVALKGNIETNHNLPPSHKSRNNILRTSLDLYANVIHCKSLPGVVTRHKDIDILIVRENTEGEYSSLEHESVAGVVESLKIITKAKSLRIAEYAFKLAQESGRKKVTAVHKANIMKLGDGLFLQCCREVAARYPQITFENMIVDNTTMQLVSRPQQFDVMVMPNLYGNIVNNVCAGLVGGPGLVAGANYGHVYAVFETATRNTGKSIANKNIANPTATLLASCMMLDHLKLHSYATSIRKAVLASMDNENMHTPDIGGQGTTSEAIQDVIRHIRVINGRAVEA
UniProt Q13572: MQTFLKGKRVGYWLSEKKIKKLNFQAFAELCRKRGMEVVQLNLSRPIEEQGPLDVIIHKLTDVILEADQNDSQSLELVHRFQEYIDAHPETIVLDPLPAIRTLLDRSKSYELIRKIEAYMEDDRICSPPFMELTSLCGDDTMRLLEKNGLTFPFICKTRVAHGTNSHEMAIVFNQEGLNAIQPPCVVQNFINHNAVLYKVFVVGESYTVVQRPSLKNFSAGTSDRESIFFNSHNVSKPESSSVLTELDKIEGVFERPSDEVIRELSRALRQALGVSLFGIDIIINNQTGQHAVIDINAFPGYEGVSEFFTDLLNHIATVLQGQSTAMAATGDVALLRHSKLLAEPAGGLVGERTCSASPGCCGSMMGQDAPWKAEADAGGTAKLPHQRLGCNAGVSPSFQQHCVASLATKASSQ
UniProt Q9H0C8: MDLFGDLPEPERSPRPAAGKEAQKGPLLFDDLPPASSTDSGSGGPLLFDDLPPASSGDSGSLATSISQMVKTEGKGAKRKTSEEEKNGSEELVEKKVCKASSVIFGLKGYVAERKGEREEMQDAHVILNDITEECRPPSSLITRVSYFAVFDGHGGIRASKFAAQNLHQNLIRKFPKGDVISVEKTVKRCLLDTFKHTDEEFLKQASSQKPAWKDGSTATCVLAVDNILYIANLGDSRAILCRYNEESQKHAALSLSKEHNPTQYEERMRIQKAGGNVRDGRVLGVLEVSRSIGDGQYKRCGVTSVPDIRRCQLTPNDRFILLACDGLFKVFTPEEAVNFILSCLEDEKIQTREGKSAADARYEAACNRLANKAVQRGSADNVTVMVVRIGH
UniProt Q9NPH3, whole entry, looked up: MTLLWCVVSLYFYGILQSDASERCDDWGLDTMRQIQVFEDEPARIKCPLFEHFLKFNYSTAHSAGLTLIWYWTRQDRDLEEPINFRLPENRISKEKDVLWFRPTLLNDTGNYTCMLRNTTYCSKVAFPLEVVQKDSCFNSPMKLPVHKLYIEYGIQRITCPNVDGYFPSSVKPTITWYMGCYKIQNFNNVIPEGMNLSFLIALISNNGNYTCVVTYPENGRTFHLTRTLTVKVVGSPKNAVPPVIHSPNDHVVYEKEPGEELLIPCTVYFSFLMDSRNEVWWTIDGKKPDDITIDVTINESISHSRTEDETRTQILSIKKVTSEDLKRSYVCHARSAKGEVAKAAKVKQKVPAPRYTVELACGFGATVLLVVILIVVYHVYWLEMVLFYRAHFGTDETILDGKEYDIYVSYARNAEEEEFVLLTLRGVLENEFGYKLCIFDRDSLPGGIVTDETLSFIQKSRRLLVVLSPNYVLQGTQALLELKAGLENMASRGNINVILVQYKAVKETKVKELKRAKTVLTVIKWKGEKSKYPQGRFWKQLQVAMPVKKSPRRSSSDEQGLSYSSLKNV
UniProt Q9H6K1: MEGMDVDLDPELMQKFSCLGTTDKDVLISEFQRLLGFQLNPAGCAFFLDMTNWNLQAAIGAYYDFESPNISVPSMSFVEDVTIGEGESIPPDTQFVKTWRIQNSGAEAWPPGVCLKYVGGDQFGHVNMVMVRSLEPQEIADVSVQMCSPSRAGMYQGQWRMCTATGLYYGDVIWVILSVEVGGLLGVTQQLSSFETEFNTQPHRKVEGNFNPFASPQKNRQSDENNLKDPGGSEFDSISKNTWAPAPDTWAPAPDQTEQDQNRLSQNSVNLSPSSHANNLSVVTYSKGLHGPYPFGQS
UniProt P80217: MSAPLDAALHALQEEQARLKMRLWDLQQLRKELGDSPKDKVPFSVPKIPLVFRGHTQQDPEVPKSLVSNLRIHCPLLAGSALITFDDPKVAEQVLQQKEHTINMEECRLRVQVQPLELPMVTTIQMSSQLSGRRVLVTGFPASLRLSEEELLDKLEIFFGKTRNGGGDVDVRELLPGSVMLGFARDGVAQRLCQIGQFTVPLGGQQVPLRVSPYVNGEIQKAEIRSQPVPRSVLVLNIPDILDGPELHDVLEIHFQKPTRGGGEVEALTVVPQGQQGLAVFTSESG
UniProt Q14624: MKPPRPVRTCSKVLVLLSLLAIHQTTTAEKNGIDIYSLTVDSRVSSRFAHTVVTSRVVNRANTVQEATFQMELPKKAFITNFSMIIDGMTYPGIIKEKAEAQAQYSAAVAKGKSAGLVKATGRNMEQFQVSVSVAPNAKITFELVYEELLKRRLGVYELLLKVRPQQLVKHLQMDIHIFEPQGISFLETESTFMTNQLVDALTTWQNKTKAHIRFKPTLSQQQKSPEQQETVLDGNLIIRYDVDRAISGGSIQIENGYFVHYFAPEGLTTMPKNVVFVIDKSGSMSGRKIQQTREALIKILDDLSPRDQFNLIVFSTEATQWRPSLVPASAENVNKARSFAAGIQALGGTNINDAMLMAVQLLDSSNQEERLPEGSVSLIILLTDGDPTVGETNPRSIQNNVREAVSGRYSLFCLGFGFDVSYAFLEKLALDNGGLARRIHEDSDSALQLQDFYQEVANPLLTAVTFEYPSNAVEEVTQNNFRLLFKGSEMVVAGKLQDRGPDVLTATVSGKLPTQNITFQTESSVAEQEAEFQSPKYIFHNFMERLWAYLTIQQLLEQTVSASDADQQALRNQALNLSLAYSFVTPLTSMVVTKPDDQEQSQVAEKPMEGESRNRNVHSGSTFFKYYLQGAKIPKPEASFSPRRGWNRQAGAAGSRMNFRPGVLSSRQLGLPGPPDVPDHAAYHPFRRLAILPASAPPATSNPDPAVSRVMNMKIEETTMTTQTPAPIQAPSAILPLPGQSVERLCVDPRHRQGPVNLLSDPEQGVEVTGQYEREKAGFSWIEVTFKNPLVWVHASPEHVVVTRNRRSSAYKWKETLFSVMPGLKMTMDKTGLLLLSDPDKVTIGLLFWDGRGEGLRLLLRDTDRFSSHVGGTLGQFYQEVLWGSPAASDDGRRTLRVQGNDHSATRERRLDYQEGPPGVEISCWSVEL
UniProt Q92551: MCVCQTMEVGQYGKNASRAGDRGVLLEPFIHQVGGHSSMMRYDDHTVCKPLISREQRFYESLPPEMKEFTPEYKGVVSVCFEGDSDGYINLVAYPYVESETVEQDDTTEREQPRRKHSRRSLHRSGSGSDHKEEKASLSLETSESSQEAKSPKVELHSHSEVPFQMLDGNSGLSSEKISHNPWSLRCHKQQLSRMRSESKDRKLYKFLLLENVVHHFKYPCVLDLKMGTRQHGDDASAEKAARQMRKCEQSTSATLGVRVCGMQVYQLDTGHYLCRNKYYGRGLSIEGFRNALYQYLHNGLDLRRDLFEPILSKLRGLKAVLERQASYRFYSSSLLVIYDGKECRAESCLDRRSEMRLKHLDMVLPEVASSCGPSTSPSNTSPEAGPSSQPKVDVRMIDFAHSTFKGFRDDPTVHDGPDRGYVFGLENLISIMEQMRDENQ

Assays:
Test in all cases: log2 fold change, soluble protein after heating vs DMSO (PISA); higher = thermal stabilisation; K562 cells, 10 uM, 30 min; active = over 0.2 and 3.5 SD of the protein, either way, in both replicates (recomputed)
[1] = compound: C1=CC=C(C=C1)[C@H](COC2=CC3=C(C=C2)NC(=O)N3)NC(=O)C4=CC=CN(C4=O)CC5=CC(=C(C=C5)F)F
Procedure, shortened: (§1)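 Quantification of soluble protein used TMTpro 16plex LC-MS/MS, with channel sums equalised. Samples were the supernatant after 21,000xg for 90 min of pooled aliquots from K562 cells (2×10^6 cells/mL) treated with 10 μM compound for 30 min, heated for 3 min over 48°C-58°C, and extracted in PBS with 0.5% NP-40 at 4°C. Values, from duplicates, describe thermal stability against control samples on a log2 fold-change scale.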

[2] = compound: CC1=C(SC2=C1C(=N[C@H](C3=NN=C(N32)C)CC(=O)N)C4=CC=C(C=C4)Cl)C
Procedure, shortened: as §1

[3] = compound: CC1=C2C(=CC=C1)N=C(N(C2=O)C3=CC=CC=C3C)CN4C=NC5=C(N=CN=C54)N
Procedure, shortened: as §1

[4] = compound: Cc1sc2c(c1C)C(c1ccc(Cl)cc1)=N[C@@H](CC(=O)OC(C)(C)C)c1nnc(C)n1-2
Procedure, shortened: as §1

[5] = compound: c1ccc([C@@H]2C[C@H]2NC2CCNCC2)cc1
Procedure, shortened: as §1

Measured: log2 fold change

INTS9 (UniProt Q9NV88)
inactive: [1] 0 | [2] 0.041 | [3] 0.023 | [4] -0.027 | [5] -0.043

IPO13 (UniProt O94829)
inactive: [1] -0.005 | [2] 0.008 | [3] 0.098 | [4] 0.037 | [5] 0.034

IKZF1 isoform 2 (UniProt Q13422)
inactive: [1] 0.335 | [2] 0.217 | [3] 0.052 | [4] -0.026 | [5] 0.061

IMMT isoform 4 (UniProt Q16891)
inactive: [1] 0.005 | [2] 0.021 | [3] 0.026 | [4] -0.025 | [5] -0.008

IRF2BPL (UniProt Q9H1B7)
inactive: [1] -0.051 | [2] 0.027 | [3] 0.001 | [4] -0.067 | [5] -0.043

INTS14 (UniProt Q96SY0)
inactive: [1] -0.038 | [2] 0.01 | [3] 0.041 | [4] -0.033 | [5] 0.021

Fetched one by one from above, 2 records:
IMMT isoform 4 (UniProt Q16891)
inactive: [1] 0.005 | [2] 0.021 | [3] 0.026 | [4] -0.025 | [5] -0.008

IPO13 (UniProt O94829)
inactive: [1] -0.005 | [2] 0.008 | [3] 0.098 | [4] 0.037 | [5] 0.034

Next part:

ITIH2 (UniProt P19823)
inactive: [1] -0.02 | [2] -0.042 | [3] 0.056 | [4] 0.07 | [5] 0.11

IKBIP isoform 4 (UniProt Q70UQ0)
inactive: [1] 0.039 | [2] 0.004 | [3] 0.017 | [4] 0.032 | [5] 0.018

IMMP2L (UniProt Q96T52)
inactive: [1] 0.035 | [2] 0.045 | [3] 0.151 | [4] -0.029 | [5] -0.002

IPO9 (UniProt Q96P70)
inactive: [1] 0.018 | [2] 0.063 | [3] 0.014 | [4] -0.01 | [5] 0.079

INPP4A (UniProt Q96PE3)
inactive: [1] -0.008 | [2] -0.021 | [3] -0.075 | [4] 0.004 | [5] 0.008

IGSF3 (UniProt O75054)
inactive: [1] 0.006 | [2] 0.054 | [3] 0.001 | [4] 0.027 | [5] 0.044

INTS7 (UniProt Q9NVH2)
inactive: [1] -0.005 | [2] 0.086 | [3] 0.001 | [4] -0.085 | [5] -0.054

IKZF1 (UniProt Q13422)
inactive: [1] -0.011 | [2] 0.05 | [3] 0.15 | [4] -0.009 | [5] 0.014

INTS13 (UniProt Q9NVM9)
inactive: [1] -0.1 | [2] 0.093 | [3] 0.048 | [4] -0.039 | [5] -0.011

ITIH3 (UniProt Q06033)
inactive: [1] -0.031 | [2] -0.04 | [3] 0.018 | [4] 0.118 | [5] -0.033

ISY1 isoform 1 (UniProt Q9ULR0)
inactive: [1] 0.047 | [2] -0.021 | [3] 0.008 | [4] 0.037 | [5] 0.03

ITM2C (UniProt Q9NQX7)
inactive: [1] -0.077 | [2] 0.007 | [3] 0.122 | [5] -0.121

IFNGR1 (UniProt P15260)
inactive: [1] 0.106 | [2] 0.105 | [3] 0.028 | [4] 0.046 | [5] 0.03

IPO7 (UniProt O95373)
inactive: [1] -0.082 | [2] 0.031 | [3] 0.069 | [4] -0.025 | [5] 0.003

ITGB1 (UniProt P05556)
inactive: [1] 0.026 | [2] -0.013 | [3] -0.017 | [4] 0.019 | [5] 0.018

IGBP1 (UniProt P78318)
inactive: [1] -0.03 | [2] 0.132 | [3] 0.018 | [4] -0.003 | [5] -0.075

IRAK4 (UniProt Q9NWZ3)
inactive: [1] -0.077 | [2] -0.006 | [3] 0.009 | [4] -0.012 | [5] -0.056

ISCU (UniProt Q9H1K1)
inactive: [1] -0.012 | [2] -0.02 | [3] -0.031 | [4] 0.019 | [5] 0.016

ISCA2 (UniProt Q86U28)
inactive: [1] 0.019 | [2] 0.075 | [3] 0.097 | [4] -0.021 | [5] 0.034

IDH3G (UniProt P51553)
inactive: [1] -0.014 | [2] -0.019 | [3] 0.007 | [4] 0.001 | [5] 0.015

IGF2BP1 (UniProt Q9NZI8)
inactive: [1] 0.145 | [2] -0.327 | [3] -0.156 | [4] 0.285 | [5] 0.026

IMPA1 isoform 3 (UniProt P29218)
inactive: [1] -0.011 | [2] -0.027 | [3] 0.003 | [4] 0 | [5] 0.031

IFRD2 isoform 2 (UniProt Q12894)
inactive: [1] -0.013 | [2] -0.091 | [3] -0.055 | [4] 0.063 | [5] 0.061

ITPK1 (UniProt Q13572)
inactive: [1] -0.017 | [2] 0.092 | [3] 0.05 | [4] 0.034 | [5] 0

IER3IP1 (UniProt Q9Y5U9)
inactive: [1] 0.07 | [2] -0.252 | [3] -0.263 | [4] -0.012 | [5] 0.063

ILKAP (UniProt Q9H0C8)
inactive: [1] -0.071 | [2] 0.076 | [3] 0.135 | [4] -0.045 | [5] -0.046

IL1RAP isoform 5 (UniProt Q9NPH3)
inactive: [1] -0.314 | [2] -0.392 | [3] 0.187 | [4] 0.065 | [5] -0.057

ISG15 (UniProt P05161)
inactive: [1] -0.044 | [2] 0.075 | [3] 0.103 | [4] -0.083 | [5] 0.001

ILRUN (UniProt Q9H6K1)
inactive: [1] 0.029 | [2] 0.031 | [3] 0.119 | [4] 0.014 | [5] -0.009

IFI35 isoform 2 (UniProt P80217)
inactive: [1] 0.018 | [2] 0.065 | [3] 0.001 | [4] -0.006 | [5] -0.018

ITGAE (UniProt P38570)
inactive: [1] 0.102 | [2] 0.039 | [3] 0.185 | [5] -0.073

IMPDH1 isoform 6 (UniProt P20839)
inactive: [1] 0.05 | [2] -0.14 | [3] -0.111 | [4] -0.004 | [5] 0

IRF2 (UniProt P14316)
inactive: [1] -0.046 | [2] -0.093 | [3] 0.029 | [4] 0.003 | [5] 0.005

IDI1 isoform 2 (UniProt Q13907)
inactive: [1] -0.024 | [2] 0.024 | [3] 0.037 | [4] 0.003 | [5] -0.007

ITIH4 (UniProt Q14624)
inactive: [1] -0.088 | [2] 0.015 | [3] 0.089 | [4] -0.133 | [5] -0.006

ITFG1 (UniProt Q8TB96)
inactive: [1] -0.041 | [2] 0.025 | [3] 0.021 | [4] 0.081 | [5] 0.025

ITPR1 (UniProt Q14643)
inactive: [1] -0.034 | [2] -0.065 | [5] -0.356

INTS5 (UniProt Q6P9B9)
inactive: [1] -0.091 | [3] 0.052 | [4] 0.065

IL2RG (UniProt P31785)
inactive: [2] -0.494 | [3] -0.072 | [4] 0 | [5] 0.064

IL10RB (UniProt Q08334)
inactive: [1] -0.081 | [3] -0.149 | [4] 0.029

IP6K1 (UniProt Q92551)
inactive: [1] 0.053 | [2] 0.059 | [4] 0.194 | [5] -0.135

IDH3A isoform 2 (UniProt P50213)
inactive: [1] 0.118 | [2] 0.251 | [4] -0.069 | [5] -0.059

ING4 (UniProt Q9UNL4)
inactive: [4] -0.066

IGFBP6 (UniProt P24592)
inactive: [2] 0.018 | [3] 0.011 | [5] 0.01
